Patent US20160091504A1
These are yes or no findings as the source states them, for the method shown. For some of these results: Binding seen in cells or lysates may run through a third protein. Some entries that bind do so weakly or less than the wild type. One block for each substance: values may come before it.

By UniProt entry, the sequences of proteins in these tests, tags left out. Where a name states a change or a piece, a line headed by the entry shows the natural chain unless it says otherwise.
UniProt Q04207: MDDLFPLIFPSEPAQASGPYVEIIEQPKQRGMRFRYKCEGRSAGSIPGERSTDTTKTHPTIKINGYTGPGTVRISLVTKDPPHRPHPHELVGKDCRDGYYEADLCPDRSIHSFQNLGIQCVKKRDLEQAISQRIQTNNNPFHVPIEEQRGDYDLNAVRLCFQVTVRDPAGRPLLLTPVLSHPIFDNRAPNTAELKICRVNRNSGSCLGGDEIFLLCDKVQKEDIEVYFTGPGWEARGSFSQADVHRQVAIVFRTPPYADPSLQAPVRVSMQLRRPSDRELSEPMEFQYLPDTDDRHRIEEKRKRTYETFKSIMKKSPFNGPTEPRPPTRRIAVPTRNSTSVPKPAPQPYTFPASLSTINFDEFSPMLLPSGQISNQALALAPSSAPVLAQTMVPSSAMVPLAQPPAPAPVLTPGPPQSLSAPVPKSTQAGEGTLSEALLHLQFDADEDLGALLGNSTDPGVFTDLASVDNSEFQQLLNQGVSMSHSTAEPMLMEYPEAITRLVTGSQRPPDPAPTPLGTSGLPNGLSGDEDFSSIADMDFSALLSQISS
UniProt Q04206: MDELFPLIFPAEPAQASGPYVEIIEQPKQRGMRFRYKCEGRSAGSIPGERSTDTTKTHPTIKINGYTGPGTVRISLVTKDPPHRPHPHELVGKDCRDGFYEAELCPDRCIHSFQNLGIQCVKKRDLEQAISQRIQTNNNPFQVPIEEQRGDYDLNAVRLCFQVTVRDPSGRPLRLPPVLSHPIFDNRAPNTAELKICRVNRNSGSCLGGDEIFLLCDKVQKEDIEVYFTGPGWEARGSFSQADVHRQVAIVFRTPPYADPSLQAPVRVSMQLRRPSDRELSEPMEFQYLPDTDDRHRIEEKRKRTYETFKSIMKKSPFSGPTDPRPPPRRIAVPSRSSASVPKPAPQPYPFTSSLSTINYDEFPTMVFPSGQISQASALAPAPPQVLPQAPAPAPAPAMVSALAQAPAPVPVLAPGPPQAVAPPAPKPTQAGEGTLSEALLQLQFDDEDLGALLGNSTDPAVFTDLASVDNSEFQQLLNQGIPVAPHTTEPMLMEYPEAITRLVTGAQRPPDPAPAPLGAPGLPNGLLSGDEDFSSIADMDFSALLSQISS

What was measured:
[1] = biological target: endogenous mouse p65 NF-κB (mouse spinal cord or BV-2 cells) (mouse) (UniProt Q04207); experiment: co-immunoprecipitation with polyclonal anti-TDP-43 from transgenic mouse spinal cord, p65 immunoblot
[2] = biological target: endogenous mouse p65 NF-κB (mouse spinal cord or BV-2 cells) (mouse) (UniProt Q04207); experiment: co-immunoprecipitation with polyclonal anti-TDP-43 from spinal cord of TDP-43^wt transgenic mice (FIG. 1A)
[3] = biological target: p65 subunit of NF-κB expressed from pCMV-p65 (Homo sapiens (Human)) (UniProt Q04206); experiment: co-immunoprecipitation from transfected BV-2 cells
[4] = biological target: p65 subunit of NF-κB expressed from pCMV-p65 (Homo sapiens (Human)) (UniProt Q04206); experiment: anti-HA co-immunoprecipitation from co-transfected BV-2 cells, p65 immunoblot
[5] = biological target: p65 subunit of NF-κB expressed from pCMV-p65 (Homo sapiens (Human)) (UniProt Q04206); experiment: anti-HA magnetic bead co-immunoprecipitation from co-transfected BV-2 cells (FIG. 10A)
[6] = biological target: p65 subunit of NF-κB expressed from pCMV-p65 (Homo sapiens (Human)) (UniProt Q04206); experiment: p65 EMSA supershift with anti-HA antibody, nuclear extracts of transfected, LPS-stimulated BV-2 cells (FIG. 3D)
[7] = biological target: p65 subunit of NF-κB expressed from pCMV-p65 (Homo sapiens (Human)) (UniProt Q04206); experiment: co-immunoprecipitation with TDP-43 antibody from transfected BV-2 lysates, treated with proteinase K, RNase or DNase 1 (FIG. 4D)
[8] = biological target: p65 subunit of NF-κB expressed from pCMV-p65 (Homo sapiens (Human)) (UniProt Q04206); experiment: anti-HA co-immunoprecipitation from transfected BV-2 cells, p65 immunoblot
[9] = biological target: p65 subunit of NF-κB expressed from pCMV-p65 (Homo sapiens (Human)) (UniProt Q04206); experiment: anti-HA co-immunoprecipitation from transfected BV-2 cells, p65 immunoblot (FIG. 4B)

binding [3]: binds
Substance: TDP-43^ΔNR1-81 (98-176AAs), N-terminal and RRM-1 deletion mutant with the NLS signal attached (from UniProt Q13148 1-414)

binding [3]: binds
Substance: TDP-43^ΔNR1-50 (51-81 and 98-176 AAs), N-terminal and RRM-1 deletion mutant with the NLS signal attached (from UniProt Q13148 1-414)

Continued, substance first:

Substance: human TDP-43 (untagged; TDP-43^wt transgene product in mouse spinal cord, or endogenous TDP-43 in human spinal cord) (from UniProt Q13148 1-414)
binding [1]: binds
binding [2]: binds

Substance: TDP-43^wt, HA-tagged, expressed from pCMV-TDP43^wt in BV-2 cells (from UniProt Q13148 1-414)
binding [4]: binds
binding [5]: binds
binding [6]: binds
binding [7]: binds

Substance: TDP-43^ΔRRM-2 (191-262AAs), HA-tagged deletion mutant (from UniProt Q13148 1-414)
binding [8]: binds
binding [9]: binds
